# Measurements as given in PubChem BioAssay AID504467 (National Center for Advancing Translational Sciences (NCATS), 2011).
# Out of some 330,000 compounds screened, about 7,700 (2.3%) were called active. The inconclusive results got no clear call from the source; some entries with a clear call stand among them for comparison. Calls come from the whole dose curve; as a rule, active = well fitted inhibition curve with a large enough effect; inconclusive = small, poorly fitted or top-dose-only effect, or effect the other way; inactive = flat fitted curve, though single readings scatter. A potency beside an inconclusive call is a rough fit, not a confirmed value.
# Assay: qHTS screen for small molecules that inhibit ELG1-dependent DNA repair in human embryonic kidney (HEK293T) cells expressing luciferase-tagged ELG1; note: nearly all actives have a fitted effect of over 55% in size
# Conditions: HEK293T ELG1-luciferase reporter, luminescence, 16 h, DNA damage induced by 5-fluorouridine; series mostly up to 46.1 µM
# How it was run: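 DMSO vehicle served as the neutral condition. Each well held 2,000 cells given 5-fluorouridine plus compound; after 16 hr at 37 °C/5% CO2, ONE-Glo was added and luciferase measured 30 min later.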
# Potency is the fitted concentration of half-maximal effect.
row,SMILES,Potency
1,Clc1ccc(SCc2cc(-c3ccccc3)on2)cc1,"inconclusive: 18.4 µM [activator, single point]"
2,CCCCn1c(N)c(N(CCOC)C(=O)C2CCN(C(=O)c3ccccc3C)CC2)c(=O)[nH]c1=O,"inconclusive: 20.6 µM [activator, single point]"
3,Cc1cc([N+](=O)[O-])nn1Cc1noc(C(=O)NCCc2ccccn2)n1,inactive
4,Cc1ccc(C(=O)NNC(=O)Cc2cccs2)cc1,"inconclusive: 14.6 µM [activator, partial curve]"
5,O=C(NCCO)c1nc2ccccc2s1,"inconclusive: 6.51 µM [activator, full curve]"
6,O=C(OCc1nnc(-c2cccs2)o1)C1=NN(c2ccccc2)C(=O)CC1,"inconclusive: 13 µM [activator, partial curve, poor fit]"
7,CCOC(=O)c1c(NC(C)=O)sc(/C(C)=N/Nc2ccc(C(=O)O)cc2)c1C,"inconclusive: 16.4 µM [activator, partial curve]"
8,Cc1ccc(Sc2cnc(N)nc2C)cc1,inactive
9,CCCOc1ccc(N2C(=O)CC(N(CCc3ccc(OC)cc3)C(=O)c3ccccc3)C2=O)cc1 (stereo not drawn),"inconclusive: 20.6 µM [inhibitor, single point]"
10,O=C(CCn1c(=S)[nH]c2cc3c(cc2c1=O)OCO3)NCc1ccccc1Cl,inactive
11,CC(C)OC(=O)C(C)Oc1ccc(C(=O)NCCc2ccccc2)cc1 (stereo not drawn),"inconclusive: 16.4 µM [activator, single point]"
12,O=C(Nc1nnc(-c2ccco2)s1)C1CCN(S(=O)(=O)c2ccc(Cl)cc2)CC1,inactive
13,COc1cc(C(=O)NNC(=S)NC(=O)c2ccc3c(c2)OCO3)cc(OC)c1OC,"inconclusive: 29.1 µM [inhibitor, single point]"
14,COC(=O)c1ccc(Oc2cc(C)nc(SC)n2)cc1,"inconclusive: 32.6 µM [activator, single point]"
15,O=C(Nc1ccc(Cl)cn1)C1CCCN1S(=O)(=O)c1ccccc1 (stereo not drawn),"inconclusive: 32.6 µM [inhibitor, single point]"
16,CN(C)CCNC(=O)c1ccc(-c2nn(C)c(=O)c3ccccc23)cc1,"inconclusive: 18.4 µM [activator, single point]"
17,CC(=O)c1ccc(OCCCC(=O)Nc2cccc(S(=O)(=O)N3CCCCCC3)c2)cc1,"inconclusive: 29.1 µM [inhibitor, single point]"
18,O=C(Nc1ccc2c(c1)OCCO2)c1ccc(Br)cc1,"inconclusive: 1.46 µM [activator, full curve]"
19,COC(=O)N1C(=O)[C@](c2ccsc2)(C(C)C)N1C(=O)OC,"inconclusive: 29.1 µM [activator, single point]"
20,CCOC(=O)c1cn2nc(N3CCCC3)ccc2n1,"inconclusive: 0.73 µM [activator, full curve]"
21,CCCn1c(NC(=O)c2cccc(S(=O)(=O)N3CCCC3)c2)nc2ccccc21,active: 8.2 µM
22,O=C(Nc1ccc(CN2CCOCC2)cc1)c1cc(Br)ccc1Cl,inactive

row,SMILES,Potency
1,CCCN1CCC(NC(=O)Cc2cccc(C)c2)CC1,inactive
2,Brc1ccc2nc(-c3cccs3)c(NCC3CCCO3)n2c1 (stereo not drawn),"inconclusive: 29.1 µM [inhibitor, single point]"
3,CC(C)c1nc2cc(C(=O)N(C)Cc3ccc(F)cc3)ccc2o1,"inconclusive: 14.6 µM [activator, partial curve]"
4,COc1ccc(C(=O)NNC(=S)NC(=O)c2ccc(OC)cc2)cc1,inactive
5,O=[N+]([O-])c1ccccc1-c1cc(-c2ccccc2O)n[nH]1,"inconclusive: 5.17 µM [activator, partial curve]"
6,CCOc1ccccc1CNC(=O)CCCn1ccc2cc(S(=O)(=O)N3CCCC3)ccc21,"inconclusive: 29.1 µM [inhibitor, single point]"
7,COc1ccc(C2C(C#N)=C(/N=C/N3CCN(C)CC3)OC3=C2C(=O)CC(C)(C)C3)cc1OC (stereo not drawn),"inconclusive: 20.6 µM [activator, single point]"
8,COc1cccc(C(=O)Nc2nnc(S(=O)(=O)N3CCCC3)s2)c1,"inconclusive: 18.3 µM [activator, partial curve, poor fit]"
9,CCOc1ccc(CCNC(=O)c2cnc(C)cn2)cc1OCC,inactive
10,COCCNC(=S)NNc1cccc(C(=O)O)c1,"inconclusive: 23.1 µM [activator, single point]"
11,Cc1nnc(NC(=O)CN2CCN(Cc3c(Cl)cccc3Cl)CC2)s1,"inconclusive: 25.9 µM [inhibitor, partial curve, poor fit]"
12,CC[C@]12c3[nH]c4ccc(OC)cc4c3CCN1C(=O)C(CC(=O)NC/C=C(\C)CCC=C(C)C)C[C@@H]2C(=O)N1CCN(C(=O)c2ccco2)CC1 (stereo partly drawn),"inconclusive: 18.3 µM [inhibitor, single point]"
13,Cc1ccc(SCCC(=O)N2CCC(C(N)=O)CC2)cc1,"inconclusive: 16.4 µM [activator, single point]"
14,Cc1ccc(C(c2nnnn2C2CCCCC2)N2CCc3ccccc32)cc1 (stereo not drawn),inactive
15,CCCCCCCOC(=O)C1=C(C)Nc2ncnn2C1c1cccs1 (stereo not drawn),"inconclusive: 13 µM [inhibitor, partial curve]"
16,COc1cc(S(=O)(=O)N2CCCCCC2)c(OC)cc1Br,"inconclusive: 20.6 µM [inhibitor, partial curve, poor fit]"
17,Cc1ccc(/C=N/NC(=O)c2nnn(-c3nonc3N)c2CSc2ccccc2)s1,"inconclusive: 18.3 µM [activator, partial curve, poor fit]"
18,Cc1ccc(CC(=O)NCCS(=O)c2ccc(C)cc2)cc1 (stereo not drawn),inactive
19,Cc1ccccc1NC(=O)/C=C/c1cccs1,"inconclusive: 29.1 µM [activator, single point]"
20,CC1=Nc2cccc([N+](=O)[O-])c2NC(=O)C1,"inconclusive: 23.1 µM [activator, partial curve, poor fit]"
21,c1ccc(C(c2ccccc2)N2CCN(Cc3nc(-c4cnccn4)no3)CC2)cc1,"inconclusive: 29.1 µM [inhibitor, single point]"

# Retrieved by compound from the list above, 4 records:
row,SMILES,Potency
17,Cc1ccc(/C=N/NC(=O)c2nnn(-c3nonc3N)c2CSc2ccccc2)s1,"inconclusive: 18.3 µM [activator, partial curve, poor fit]"
1,CCCN1CCC(NC(=O)Cc2cccc(C)c2)CC1,inactive
8,COc1cccc(C(=O)Nc2nnc(S(=O)(=O)N3CCCC3)s2)c1,"inconclusive: 18.3 µM [activator, partial curve, poor fit]"
21,c1ccc(C(c2ccccc2)N2CCN(Cc3nc(-c4cnccn4)no3)CC2)cc1,"inconclusive: 29.1 µM [inhibitor, single point]"
